Measured values reported in paper doi:10.1101/2022.11.01.514535.
Positions count from the first letter of the chain named. Where two headings read alike, the source gives them in different places. No constants are given. Whether binding was seen depends on the method and setting. In cells and extracts the contact can be indirect. Some entries that bind do so weakly or less than the wild type. Where a sequence is shown, tags or fusion partners need not be part of it.

Protein sequences, listed by entry. Tags and fused reporters are not part of them. Lines headed by an entry give the natural chain unless they say otherwise; changes in a name come on top.
UniProt P63208, whole entry: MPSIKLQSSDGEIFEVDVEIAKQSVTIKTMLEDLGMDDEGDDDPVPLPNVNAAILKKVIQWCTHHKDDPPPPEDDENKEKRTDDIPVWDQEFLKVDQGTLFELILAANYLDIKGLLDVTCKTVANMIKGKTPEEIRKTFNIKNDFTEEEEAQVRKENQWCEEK
UniProt P0DMV8, whole entry: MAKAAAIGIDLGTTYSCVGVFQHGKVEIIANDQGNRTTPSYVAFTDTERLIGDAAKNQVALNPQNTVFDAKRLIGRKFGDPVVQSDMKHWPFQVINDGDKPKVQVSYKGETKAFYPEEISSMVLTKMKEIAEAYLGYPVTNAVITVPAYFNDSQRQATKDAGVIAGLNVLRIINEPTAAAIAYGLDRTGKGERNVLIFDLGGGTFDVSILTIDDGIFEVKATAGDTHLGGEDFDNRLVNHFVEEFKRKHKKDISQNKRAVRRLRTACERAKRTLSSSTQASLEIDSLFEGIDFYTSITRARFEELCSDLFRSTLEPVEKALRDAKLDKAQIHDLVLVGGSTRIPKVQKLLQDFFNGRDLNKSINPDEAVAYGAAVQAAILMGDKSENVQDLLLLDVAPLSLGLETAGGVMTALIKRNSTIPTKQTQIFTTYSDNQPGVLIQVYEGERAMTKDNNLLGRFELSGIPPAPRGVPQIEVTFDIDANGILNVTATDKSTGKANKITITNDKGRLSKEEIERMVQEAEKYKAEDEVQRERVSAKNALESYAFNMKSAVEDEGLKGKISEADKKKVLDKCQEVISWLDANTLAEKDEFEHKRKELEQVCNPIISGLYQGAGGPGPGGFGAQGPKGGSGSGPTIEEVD

Columns and labels:
Experiment in all cases: co-IP
C497R-FBXL6 flag (human) = target: T1, C497R-FBXL6 flag (human) (UniProt Q8N531)
T1 sequence: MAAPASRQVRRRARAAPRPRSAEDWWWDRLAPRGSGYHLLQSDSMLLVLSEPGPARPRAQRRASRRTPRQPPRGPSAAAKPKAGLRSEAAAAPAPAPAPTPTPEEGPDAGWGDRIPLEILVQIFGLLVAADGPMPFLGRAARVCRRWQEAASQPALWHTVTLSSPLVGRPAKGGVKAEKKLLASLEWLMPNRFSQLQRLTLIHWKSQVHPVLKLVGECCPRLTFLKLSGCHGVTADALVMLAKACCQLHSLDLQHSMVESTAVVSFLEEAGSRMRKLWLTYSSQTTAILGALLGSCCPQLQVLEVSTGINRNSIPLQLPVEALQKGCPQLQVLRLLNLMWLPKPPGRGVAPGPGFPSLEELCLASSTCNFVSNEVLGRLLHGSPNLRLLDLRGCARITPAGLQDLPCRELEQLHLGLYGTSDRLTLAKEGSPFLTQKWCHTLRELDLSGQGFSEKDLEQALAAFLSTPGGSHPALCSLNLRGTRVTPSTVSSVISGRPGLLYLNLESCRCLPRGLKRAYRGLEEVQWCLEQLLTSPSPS

[1] = target: T2, FBXL4-Flag (F-box/LRR-repeat protein 4) (UniProt Q9UKA2)
T2 sequence: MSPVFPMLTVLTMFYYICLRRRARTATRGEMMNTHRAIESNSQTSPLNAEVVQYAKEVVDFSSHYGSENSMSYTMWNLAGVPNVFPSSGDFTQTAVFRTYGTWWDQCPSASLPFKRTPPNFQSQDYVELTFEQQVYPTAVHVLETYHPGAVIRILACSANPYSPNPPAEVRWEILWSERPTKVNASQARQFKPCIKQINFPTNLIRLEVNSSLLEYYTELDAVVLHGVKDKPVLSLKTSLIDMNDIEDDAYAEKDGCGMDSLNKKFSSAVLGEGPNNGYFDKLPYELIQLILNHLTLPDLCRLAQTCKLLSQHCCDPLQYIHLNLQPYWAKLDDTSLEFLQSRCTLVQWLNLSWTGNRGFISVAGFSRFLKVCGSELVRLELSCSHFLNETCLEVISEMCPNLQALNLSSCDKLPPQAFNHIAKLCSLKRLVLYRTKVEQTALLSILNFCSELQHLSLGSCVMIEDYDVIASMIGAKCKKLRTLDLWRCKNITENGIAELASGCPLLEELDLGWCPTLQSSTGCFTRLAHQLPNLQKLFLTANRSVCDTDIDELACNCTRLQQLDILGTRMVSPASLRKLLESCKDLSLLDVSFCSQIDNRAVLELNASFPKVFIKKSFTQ

[2] = target: T3, FBXL6-Flag (F-box/LRR-repeat protein 6, wild type) (human) (UniProt Q8N531)
T3 sequence: T1 sequence with R497C

[3] = target: T3, FBXL6-Flag (F-box/LRR-repeat protein 6, wild type) (human); remark: listed apart in the source

Q: What does the source list for SKP1 (from UniProt P63208 1-163)?
A: binding (C497R-FBXL6 flag (human)): binds; binding [1]: binds; binding [2]: binds

Q: Which results are given for “HSPA1A (heat shock protein A1A) (from UniProt P0DMV8 1-641)”?
A: binding (C497R-FBXL6 flag (human)): binds; binding [1]: binds; binding [2]: binds

B1: ZNF598 (protein, UniProt Q86UK7 1-904)
chain: MAAAGGAEGRRAALEAAAAAAPERGGGSCVLCCGDLEATALGRCDHPVCYRCSTKMRVLCEQRYCAVCREELRQVVFGKKLPAFATIPIHQLQHEKKYDIYFADGKVYALYRQLLQHECPRCPELPPFSLFGDLEQHMRRQHELFCCRLCLQHLQIFTYERKWYSRKDLARHRMQGDPDDTSHRGHPLCKFCDERYLDNDELLKHLRRDHYFCHFCDSDGAQDYYSDYAYLREHFREKHFLCEEGRCSTEQFTHAFRTEIDLKAHRTACHSRSRAEARQNRHIDLQFSYAPRHSRRNEGVVGGEDYEEVDRYSRQGRVARAGTRGAQQSRRGSWRYKREEEDREVAAAVRASVAAQQQEEARRSEDQEEGGRPKKEEAAARGPEDPRGPRRSPRTQGEGPGPKETSTNGPVSQEAFSVTGPAAPGCVGVPGALPPPSPKLKDEDFPSLSASTSSSCSTAATPGPVGLALPYAIPARGRSAFQEEDFPALVSSVPKPGTAPTSLVSAWNSSSSSKKVAQPPLSAQATGSGQPTRKAGKGSRGGRKGGPPFTQEEEEDGGPALQELLSTRPTGSVSSTLGLASIQPSKVGKKKKVGSEKPGTTLPQPPPATCPPGALQAPEAPASRAEGPVAVVVNGHTEGPAPARSAPKEPPGLPRPLGSFPCPTPQEDFPALGGPCPPRMPPPPGFSAVVLLKGTPPPPPPGLVPPISKPPPGFSGLLPSPHPACVPSPATTTTTKAPRLLPAPRAYLVPENFRERNLQLIQSIRDFLQSDEARFSEFKSHSGEFRQGLISAAQYYKSCRDLLGENFQKVFNELLVLLPDTAKQQELLSAHTDFCNREKPLSTKSKKNKKSAWQATTQQAGLDCRVCPTCQQVLAHGDASSHQALHAARDDDFPSLQAIARIIT
Q: For B1, which binding [3] is on record?
A: Its binding is “binds”.

B2: NEMF (protein, UniProt O60524 1-1076)
chain: MKSRFSTIDLRAVLAELNASLLGMRVNNVYDVDNKTYLIRLQKPDFKATLLLESGIRIHTTEFEWPKNMMPSSFAMKCRKHLKSRRLVSAKQLGVDRIVDFQFGSDEAAYHLIIELYDRGNIVLTDYEYVILNILRFRTDEADDVKFAVRERYPLDHARAAEPLLTLERLTEIVASAPKGELLKRVLNPLLPYGPALIEHCLLENGFSGNVKVDEKLETKDIEKVLVSLQKAEDYMKTTSNFSGKGYIIQKREIKPSLEADKPVEDILTYEEFHPFLFSQHSQCPYIEFESFDKAVDEFYSKIEGQKIDLKALQQEKQALKKLDNVRKDHENRLEALQQAQEIDKLKGELIEMNLQIVDRAIQVVRSALANQIDWTEIGLIVKEAQAQGDPVASAIKELKLQTNHVTMLLRNPYLLSEEEDDDVDGDVNVEKNETEPPKGKKKKQKNKQLQKPQKNKPLLVDVDLSLSAYANAKKYYDHKRYAAKKTQKTVEAAEKAFKSAEKKTKQTLKEVQTVTSIQKARKVYWFEKFLWFISSENYLIIGGRDQQQNEIIVKRYLTPGDIYVHADLHGATSCVIKNPTGEPIPPRTLTEAGTMALCYSAAWDARVITSAWWVYHHQVSKTAPTGEYLTTGSFMIRGKKNFLPPSYLMMGFSFLFKVDESCVWRHQGERKVRVQDEDMETLASCTSELISEEMEQLDGGDTSSDEDKEEHETPVEVELMTQVDQEDITLQSGRDELNEELIQEESSEDEGEYEEVRKDQDSVGEMKDEGEETLNYPDTTIDLSHLQPQRSIQKLASKEESSNSSDSKSQSRRHLSAKERREMKKKKLPSDSGDLEALEGKDKEKESTVHIETHQNTSKNVAAVQPMKRGQKSKMKKMKEKYKDQDEEDRELIMKLLGSAGSNKEEKGKKGKKGKTKDEPVKKQPQKPRGGQRVSDNIKKETPFLEVITHELQDFAVDDPHDDKEEQDLDQQGNEENLFDSLTGQPHPEDVLLFAIPICAPYTTMTNYKYKVKLTPGVQKKGKAAKTALNSFMHSKEATAREKDLFRSVKDTDLSRNIPGKVKVSAPNLLNVKRK
Q: For B2, which binding [3] is on record?
A: The binding was “binds”.
